A short description of data set [1]: peptide synthesis. The conditions noted are these: whole synthesis.
A short description of data set [2]: general procedure: peptide synthesis; 2-Chlorotrityl chloride resin (loading 1.22 mmol/g); HBTU/DIPEA. Conditions: whole synthesis, scale of the general procedure 200 mg resin.

In turn, Glu-Urea-Lys-2-naphthyl-L-Ala-Amc-Cys registered an isolated mass in data set [1] of 19.8 mg. Besides, the “final HPLC purity” value in data set [2] (UV 230 nm) is 99%. This substance had an isolated yield in data set [2] (total yield) of 4%.
